From the supplement of paper PMC10849652
The list shows a part of the results.

Sequences of proteins named here, by UniProt entry; tags and fusion partners are left off. A change or cut given only in a name is not applied to a line headed by its entry.
UniProt Q9UHF7: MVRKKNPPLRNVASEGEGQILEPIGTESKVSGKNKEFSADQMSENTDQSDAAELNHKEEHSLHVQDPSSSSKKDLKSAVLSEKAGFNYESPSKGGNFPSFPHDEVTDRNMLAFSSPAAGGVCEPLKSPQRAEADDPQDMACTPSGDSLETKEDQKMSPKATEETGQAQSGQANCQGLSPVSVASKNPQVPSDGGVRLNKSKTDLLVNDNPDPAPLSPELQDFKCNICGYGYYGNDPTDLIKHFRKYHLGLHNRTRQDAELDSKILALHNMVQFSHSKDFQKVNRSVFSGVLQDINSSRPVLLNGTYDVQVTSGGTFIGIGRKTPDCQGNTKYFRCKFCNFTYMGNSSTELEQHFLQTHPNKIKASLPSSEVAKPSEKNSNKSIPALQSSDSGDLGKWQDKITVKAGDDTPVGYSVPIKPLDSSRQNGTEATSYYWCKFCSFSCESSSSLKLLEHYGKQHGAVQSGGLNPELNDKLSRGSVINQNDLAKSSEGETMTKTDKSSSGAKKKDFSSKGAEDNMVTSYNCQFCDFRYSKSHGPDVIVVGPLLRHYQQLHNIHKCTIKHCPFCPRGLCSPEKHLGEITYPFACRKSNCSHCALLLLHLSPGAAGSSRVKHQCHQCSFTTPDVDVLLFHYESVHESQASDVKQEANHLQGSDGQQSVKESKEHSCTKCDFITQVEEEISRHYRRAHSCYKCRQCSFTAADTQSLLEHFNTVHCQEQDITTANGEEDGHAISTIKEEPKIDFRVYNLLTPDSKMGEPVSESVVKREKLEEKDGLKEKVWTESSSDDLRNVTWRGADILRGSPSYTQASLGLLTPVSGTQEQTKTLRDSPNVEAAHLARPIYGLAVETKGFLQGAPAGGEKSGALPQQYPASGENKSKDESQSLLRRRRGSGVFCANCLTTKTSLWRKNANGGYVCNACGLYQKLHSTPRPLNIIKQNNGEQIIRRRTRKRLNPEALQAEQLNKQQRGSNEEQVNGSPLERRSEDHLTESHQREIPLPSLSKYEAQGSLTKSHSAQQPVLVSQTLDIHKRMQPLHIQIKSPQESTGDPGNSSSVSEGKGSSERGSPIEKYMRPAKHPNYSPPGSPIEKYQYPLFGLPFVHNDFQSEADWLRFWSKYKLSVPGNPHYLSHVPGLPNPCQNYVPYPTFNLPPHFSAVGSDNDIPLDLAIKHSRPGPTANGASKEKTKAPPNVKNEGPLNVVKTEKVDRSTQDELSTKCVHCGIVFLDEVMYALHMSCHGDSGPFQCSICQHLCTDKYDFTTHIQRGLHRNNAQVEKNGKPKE
UniProt O75865, whole entry, looked up: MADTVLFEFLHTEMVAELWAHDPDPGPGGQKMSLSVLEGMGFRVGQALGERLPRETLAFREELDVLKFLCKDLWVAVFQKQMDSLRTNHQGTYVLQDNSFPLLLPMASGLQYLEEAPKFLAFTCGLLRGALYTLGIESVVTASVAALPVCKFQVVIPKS
UniProt Q32P41: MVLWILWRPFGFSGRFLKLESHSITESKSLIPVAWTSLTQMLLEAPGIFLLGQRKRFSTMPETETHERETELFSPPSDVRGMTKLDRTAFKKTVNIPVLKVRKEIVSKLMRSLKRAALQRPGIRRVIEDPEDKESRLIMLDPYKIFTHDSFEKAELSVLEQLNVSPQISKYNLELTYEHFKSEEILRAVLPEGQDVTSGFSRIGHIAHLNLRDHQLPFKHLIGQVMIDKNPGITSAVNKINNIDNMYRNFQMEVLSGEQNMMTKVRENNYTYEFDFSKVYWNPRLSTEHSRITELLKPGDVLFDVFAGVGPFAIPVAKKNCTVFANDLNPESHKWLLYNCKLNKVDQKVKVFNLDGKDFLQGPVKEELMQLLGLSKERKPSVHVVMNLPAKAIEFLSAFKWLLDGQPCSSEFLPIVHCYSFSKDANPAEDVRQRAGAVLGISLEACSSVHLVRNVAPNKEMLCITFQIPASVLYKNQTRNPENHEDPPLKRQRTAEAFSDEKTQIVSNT
UniProt Q8WV44: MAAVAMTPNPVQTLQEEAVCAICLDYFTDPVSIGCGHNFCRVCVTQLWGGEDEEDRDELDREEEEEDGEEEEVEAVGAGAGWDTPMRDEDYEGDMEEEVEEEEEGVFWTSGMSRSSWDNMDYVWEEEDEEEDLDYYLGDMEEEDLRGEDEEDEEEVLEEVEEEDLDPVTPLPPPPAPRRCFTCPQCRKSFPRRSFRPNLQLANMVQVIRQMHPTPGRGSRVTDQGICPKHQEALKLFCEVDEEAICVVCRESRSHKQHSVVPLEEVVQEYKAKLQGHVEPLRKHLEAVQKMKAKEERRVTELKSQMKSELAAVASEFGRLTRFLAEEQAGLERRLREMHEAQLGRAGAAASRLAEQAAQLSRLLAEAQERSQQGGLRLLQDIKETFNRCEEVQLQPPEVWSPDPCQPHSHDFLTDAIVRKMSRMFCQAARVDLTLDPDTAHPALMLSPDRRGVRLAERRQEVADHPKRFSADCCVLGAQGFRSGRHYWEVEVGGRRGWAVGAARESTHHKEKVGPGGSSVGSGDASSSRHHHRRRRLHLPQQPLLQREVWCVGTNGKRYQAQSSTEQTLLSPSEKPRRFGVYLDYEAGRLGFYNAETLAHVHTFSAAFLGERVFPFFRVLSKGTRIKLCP
UniProt Q8NDV7: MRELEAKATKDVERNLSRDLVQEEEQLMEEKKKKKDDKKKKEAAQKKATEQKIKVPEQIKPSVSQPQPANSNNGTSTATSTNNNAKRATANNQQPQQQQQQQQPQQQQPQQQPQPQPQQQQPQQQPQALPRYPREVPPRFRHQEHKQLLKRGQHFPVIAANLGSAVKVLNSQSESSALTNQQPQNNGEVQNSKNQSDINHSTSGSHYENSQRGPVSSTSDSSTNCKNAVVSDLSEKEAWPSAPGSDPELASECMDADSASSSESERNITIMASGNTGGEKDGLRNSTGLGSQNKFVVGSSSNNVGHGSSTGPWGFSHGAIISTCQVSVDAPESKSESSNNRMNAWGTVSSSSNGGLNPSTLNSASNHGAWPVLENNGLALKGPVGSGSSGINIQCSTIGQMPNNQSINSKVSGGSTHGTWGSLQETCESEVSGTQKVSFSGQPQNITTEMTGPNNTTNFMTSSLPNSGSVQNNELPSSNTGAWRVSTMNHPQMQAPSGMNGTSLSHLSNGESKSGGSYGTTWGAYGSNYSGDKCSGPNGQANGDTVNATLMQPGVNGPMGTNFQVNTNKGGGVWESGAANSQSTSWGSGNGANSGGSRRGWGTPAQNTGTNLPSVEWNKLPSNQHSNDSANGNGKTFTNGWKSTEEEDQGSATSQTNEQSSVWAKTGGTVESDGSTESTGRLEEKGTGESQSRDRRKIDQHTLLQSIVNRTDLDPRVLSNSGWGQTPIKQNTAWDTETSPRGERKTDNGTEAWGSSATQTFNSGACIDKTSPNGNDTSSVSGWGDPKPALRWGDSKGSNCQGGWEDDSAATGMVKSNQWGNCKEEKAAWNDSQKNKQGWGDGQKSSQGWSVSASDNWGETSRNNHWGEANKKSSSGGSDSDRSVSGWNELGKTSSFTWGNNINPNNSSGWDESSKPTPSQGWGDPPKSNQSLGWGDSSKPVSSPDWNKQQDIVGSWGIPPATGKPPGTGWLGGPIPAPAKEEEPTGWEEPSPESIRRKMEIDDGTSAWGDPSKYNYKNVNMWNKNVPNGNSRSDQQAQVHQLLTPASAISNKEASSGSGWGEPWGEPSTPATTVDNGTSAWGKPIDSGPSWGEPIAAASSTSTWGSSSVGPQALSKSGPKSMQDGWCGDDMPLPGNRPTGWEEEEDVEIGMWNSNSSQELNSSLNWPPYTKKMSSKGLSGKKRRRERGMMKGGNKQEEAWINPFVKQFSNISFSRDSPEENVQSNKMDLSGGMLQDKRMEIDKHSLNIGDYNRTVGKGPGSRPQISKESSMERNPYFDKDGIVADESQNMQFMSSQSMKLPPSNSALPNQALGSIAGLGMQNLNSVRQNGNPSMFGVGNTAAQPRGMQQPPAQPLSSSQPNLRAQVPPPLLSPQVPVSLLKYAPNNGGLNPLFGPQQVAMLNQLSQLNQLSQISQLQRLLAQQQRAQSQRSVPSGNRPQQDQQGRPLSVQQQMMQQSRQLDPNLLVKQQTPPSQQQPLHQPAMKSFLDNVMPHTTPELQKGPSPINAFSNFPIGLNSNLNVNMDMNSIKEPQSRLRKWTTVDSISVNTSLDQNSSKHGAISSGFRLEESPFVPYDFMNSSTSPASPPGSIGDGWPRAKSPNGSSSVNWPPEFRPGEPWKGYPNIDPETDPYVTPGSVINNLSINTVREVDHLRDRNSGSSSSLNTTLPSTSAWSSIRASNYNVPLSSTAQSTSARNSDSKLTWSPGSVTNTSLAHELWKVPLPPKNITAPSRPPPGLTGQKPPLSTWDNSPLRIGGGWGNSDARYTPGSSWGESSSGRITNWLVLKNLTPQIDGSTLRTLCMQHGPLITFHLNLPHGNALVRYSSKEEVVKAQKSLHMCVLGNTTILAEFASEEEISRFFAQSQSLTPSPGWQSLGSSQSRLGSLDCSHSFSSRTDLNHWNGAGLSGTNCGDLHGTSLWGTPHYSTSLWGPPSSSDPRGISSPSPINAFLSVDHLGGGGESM
UniProt Q14669: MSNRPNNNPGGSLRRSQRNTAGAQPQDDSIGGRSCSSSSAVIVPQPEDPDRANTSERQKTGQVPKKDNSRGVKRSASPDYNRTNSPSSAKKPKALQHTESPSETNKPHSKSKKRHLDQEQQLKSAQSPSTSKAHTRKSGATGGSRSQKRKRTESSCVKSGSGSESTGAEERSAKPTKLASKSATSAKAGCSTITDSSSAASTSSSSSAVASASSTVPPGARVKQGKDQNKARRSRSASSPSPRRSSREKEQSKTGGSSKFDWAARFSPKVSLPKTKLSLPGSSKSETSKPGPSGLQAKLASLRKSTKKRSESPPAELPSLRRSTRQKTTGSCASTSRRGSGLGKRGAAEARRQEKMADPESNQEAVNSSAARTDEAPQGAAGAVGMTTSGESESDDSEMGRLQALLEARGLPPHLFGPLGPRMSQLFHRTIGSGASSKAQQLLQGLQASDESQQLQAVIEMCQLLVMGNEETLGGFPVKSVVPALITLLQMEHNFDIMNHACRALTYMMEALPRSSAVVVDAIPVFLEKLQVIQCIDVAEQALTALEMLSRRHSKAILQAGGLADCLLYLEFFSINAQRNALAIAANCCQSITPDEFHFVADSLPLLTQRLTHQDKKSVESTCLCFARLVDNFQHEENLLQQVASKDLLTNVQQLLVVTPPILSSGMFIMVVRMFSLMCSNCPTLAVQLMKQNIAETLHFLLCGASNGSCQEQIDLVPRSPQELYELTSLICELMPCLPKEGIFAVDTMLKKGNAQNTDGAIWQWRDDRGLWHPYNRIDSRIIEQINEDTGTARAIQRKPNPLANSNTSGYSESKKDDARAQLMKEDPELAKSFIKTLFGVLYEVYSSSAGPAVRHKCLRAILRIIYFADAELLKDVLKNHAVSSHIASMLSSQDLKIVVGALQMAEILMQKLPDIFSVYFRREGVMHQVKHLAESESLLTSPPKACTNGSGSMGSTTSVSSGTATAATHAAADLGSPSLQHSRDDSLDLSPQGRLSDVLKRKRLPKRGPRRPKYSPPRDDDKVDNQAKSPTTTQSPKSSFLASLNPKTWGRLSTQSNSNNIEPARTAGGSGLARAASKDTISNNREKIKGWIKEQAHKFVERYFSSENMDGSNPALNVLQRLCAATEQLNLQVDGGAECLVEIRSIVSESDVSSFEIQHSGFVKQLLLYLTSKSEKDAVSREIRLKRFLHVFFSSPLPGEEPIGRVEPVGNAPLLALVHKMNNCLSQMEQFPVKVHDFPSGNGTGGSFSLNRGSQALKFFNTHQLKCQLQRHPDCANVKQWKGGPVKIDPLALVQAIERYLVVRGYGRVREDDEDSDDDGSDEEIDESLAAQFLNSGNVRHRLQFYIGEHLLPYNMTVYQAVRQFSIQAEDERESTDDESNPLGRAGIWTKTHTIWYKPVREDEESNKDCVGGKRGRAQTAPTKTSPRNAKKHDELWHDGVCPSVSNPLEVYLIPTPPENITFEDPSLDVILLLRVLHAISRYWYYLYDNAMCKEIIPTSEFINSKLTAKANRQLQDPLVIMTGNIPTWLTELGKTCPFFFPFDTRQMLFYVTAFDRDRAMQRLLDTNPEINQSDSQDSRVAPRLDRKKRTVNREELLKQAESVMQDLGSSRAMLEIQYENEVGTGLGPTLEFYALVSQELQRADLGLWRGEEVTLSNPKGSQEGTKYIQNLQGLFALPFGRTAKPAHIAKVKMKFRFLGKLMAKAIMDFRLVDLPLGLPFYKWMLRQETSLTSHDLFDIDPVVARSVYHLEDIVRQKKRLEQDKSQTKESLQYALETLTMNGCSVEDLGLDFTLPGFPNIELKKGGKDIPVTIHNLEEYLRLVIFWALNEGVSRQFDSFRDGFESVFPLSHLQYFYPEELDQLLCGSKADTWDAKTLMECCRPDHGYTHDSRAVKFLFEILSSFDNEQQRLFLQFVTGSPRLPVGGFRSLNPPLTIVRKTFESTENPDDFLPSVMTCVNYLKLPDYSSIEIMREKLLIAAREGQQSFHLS

Tests used:
Test in all cases: log2 fold change, soluble protein after heating vs DMSO (PISA); higher = thermal stabilisation; K562 cells, 10 uM, 30 min; active = over 0.2 and 3.5 SD of the protein, either way, in both replicates (recomputed)
givinostat = compound: CCN(CC)Cc1ccc2cc(COC(=O)Nc3ccc(C(=O)NO)cc3)ccc2c1 [givinostat]
Outline: (§1)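 K562 cells at 2×10^6 cells/mL were given 10 μM compound for 30 min. Aliquots then went through 3 min of heating across 48°C-58°C, were pooled, and were extracted in PBS with 0.5% NP-40 at 4°C, and the supernatant after 21,000xg for 90 min was quantified by TMTpro 16plex LC-MS/MS with channel sums equalised. Thermal stability relative to control samples, from duplicates, is given as log2 fold change.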

[1] = compound: CCn1c(C(=O)N(C2CC2)C2CC2)cc2c3c(ncn3C)c(Nc3cc(C)n(C)n3)nc21
Outline: as §1

[2] = compound: CC1=C(C=C(C=C1)NC(=O)C2=CC(=CC=C2)C(C)(C)C#N)NC3=CC4=C(C=C3)N=CN(C4=O)C
Outline: as §1

Nexturastat A = compound: CCCCN(Cc1ccc(C(=O)NO)cc1)C(=O)Nc1ccccc1 [Nexturastat A]
Outline: as §1

epoxomicin = compound: CC[C@H](C)[C@@H](C(=O)N[C@@H]([C@@H](C)O)C(=O)N[C@@H](CC(C)C)C(=O)[C@]1(CO1)C)NC(=O)[C@H]([C@@H](C)CC)N(C)C(=O)C [epoxomicin]
Outline: as §1

[3] = compound: CN1C2=C(C3=C1C(=O)N(N=C3)CC4=CC(=CC=C4)N)SC(=C2)S(=O)C
Outline: as §1

barasertib = compound: CCN(CCCOc1ccc2c(Nc3cc(CC(=O)Nc4cccc(F)c4)[nH]n3)ncnc2c1)CCOP(=O)(O)O [barasertib]
Outline: as §1

rosiglitazone = compound: CN(CCOC1=CC=C(C=C1)C[C@H]2C(=O)NC(=O)S2)C3=CC=CC=N3 (racemic) [rosiglitazone]
Outline: as §1

[4] = compound: CC1=CC=C(C=C1)SC2=C3C=C(SC3=CN=C2)C(=O)N
Outline: as §1

[5] = compound: CCCS(=O)(=O)Nc1ccc(F)c(C(=O)c2c[nH]c3ncc(Cl)cc23)c1F
Outline: as §1

[6] = compound: CCCc1cc(C)[nH]c(=O)c1CNC(=O)c1cc(-c2ccnc(N3CCN(C)CC3)c2)cc2c1cnn2C(C)C
Outline: as §1

[7] = compound: CC[C@@H]1C(=O)N(C)c2cnc(Nc3ccc(C(=O)NC4CCN(C)CC4)cc3OC)nc2N1C1CCCC1
Outline: as §1

volasertib = compound: CC[C@@H]1C(=O)N(C)c2cnc(Nc3ccc(C(=O)N[C@H]4CC[C@H](N5CCN(CC6CC6)CC5)CC4)cc3OC)nc2N1C(C)C [volasertib]
Outline: as §1

[8] = compound: CC[C@H](C)N1C=C(C2=C(C=C(C=C21)C3=CN=C(C=C3)N4CCNCC4)C(=O)NCC5=C(C=C(NC5=O)C)C)C
Outline: as §1

[9] = compound: CC1=C(C=C(C=C1)NC(=O)C2=CC(=CC=C2)N(C)C)NC(=O)C3=CC=C(C=C3)O
Outline: as §1

[10] = compound: CCn1cc(-c2ccnc3[nH]c(-c4cccc(CN(C)C)c4)cc23)c(-c2ccc(NC(=O)N(C)C)cc2)n1
Outline: as §1

[11] = compound: CN1CCC(CNc2ccc3ncc(-c4cccc(OC(F)(F)F)c4)n3n2)CC1
Outline: as §1

[12] = compound: CC1=NC(=CC=C1)C2=C(N=C(N2)C(C)(C)C)C3=CC4=NC=CN=C4C=C3
Outline: as §1

vemurafenib = compound: CCCS(=O)(=O)Nc1ccc(F)c(C(=O)c2c[nH]c3ncc(-c4ccc(Cl)cc4)cc23)c1F [vemurafenib]
Outline: as §1

[13] = compound: CN(C)CC(=O)Nc1ccc2[nH]c(=O)c3ccccc3c2c1
Outline: as §1

Measured: log2 fold change

TRPS1 isoform 2 (UniProt Q9UHF7)
inactive: givinostat 0.2 | [1] -0.105

TRPM4 (UniProt Q8TD43)
inactive: [2] -0.158 | Nexturastat A 0.285 | epoxomicin -0.118 | [3] 0.073

TPD52 isoform 3 (UniProt P55327)
inactive: barasertib 0 | rosiglitazone -0.447 | [3] 0.035

TRAPPC6A isoform 2 (UniProt O75865)
inactive: [4] -0.052 | [5] 0.067 | [6] -0.032 | givinostat -0.003 | barasertib 0.359 | [7] -0.117 | volasertib -0.269 | [8] 0.034 | [1] -0.04 | rosiglitazone -0.434

TROAP (UniProt Q12815)
inactive: [9] -0.119 | Nexturastat A 0.117 | barasertib 0.014 | epoxomicin 0.196 | [10] -0.004 | rosiglitazone 0.064 | [11] -0.086

TRIM14 (UniProt Q14142)
inactive: [8] -0.214

TREML2 (UniProt Q5T2D2)
inactive: [2] 0.048 | [12] 0.126 | [6] 0.005 | givinostat 0.17 | barasertib 0.078 | [1] 0.039 | rosiglitazone 0.151 | [3] -0.002

TRIM27 (UniProt P14373)
inactive: [10] -0.16 | [11] 0.124

TRIM33 isoform 2 (UniProt Q9UPN9)
inactive: [2] 0.117 | Nexturastat A 0.032 | [6] 0.266 | [8] 0.312 | epoxomicin 0.227

TOR1AIP2 (UniProt Q9H496)
inactive: [9] -0.042 | Nexturastat A -0.11 | [6] -0.03 | barasertib 0.17 | [7] -0.022 | [8] -0.044 | epoxomicin 0.33 | rosiglitazone 0.057

TRA2A (UniProt Q13595)
inactive: barasertib 0.029 | [8] -0.008 | rosiglitazone 0.274

TSC1 (UniProt Q92574)
inactive: [9] 0.102 | [4] -0.47 | [12] -0.044 | vemurafenib 0.045 | [5] 0.138 | givinostat 0.117 | [7] -0.693 | volasertib -0.463 | [1] 0.026 | [13] 0.168 | [3] -0.144

TRMT5 (UniProt Q32P41)
inactive: [12] 0.12 | Nexturastat A 0.099 | vemurafenib 0.128 | givinostat -0.128 | barasertib -0.055 | [7] -0.163 | [8] -0.095 | epoxomicin -0.087 | [1] -0.019 | [10] 0.005 | [13] 0.214 | rosiglitazone -0.174 | [11] -0.107

TRIM41 (UniProt Q8WV44)
inactive: vemurafenib -0.183 | [13] 0.38

TNKS (UniProt O95271)
inactive: [4] -0.231 | [12] -0.527 | [5] 0.015 | volasertib -0.134 | [3] 0.052

TRAF3IP1 (UniProt Q8TDR0)
inactive: [9] -0.095 | [12] -0.056 | vemurafenib -0.002 | [13] 0.05 | [3] 0.054

TRADD (UniProt Q15628)
inactive: [9] -0.065 | Nexturastat A 0.032 | vemurafenib -0.029 | [6] -0.09 | givinostat 0.083 | [8] 0.309 | epoxomicin 0.078 | [1] -0.1 | [13] 0.136 | [3] 0.084

TNRC6A (UniProt Q8NDV7)
inactive: [6] -0.013

TNIK isoform 3 (UniProt Q9UKE5)
inactive: [9] 0.087 | [4] -0.006 | [12] 0.004 | vemurafenib -0.057 | [5] -0.002 | [6] 0.022 | givinostat 0.038 | barasertib -0.022 | [7] 0.12 | volasertib 0 | [1] -0.013 | [10] -0.046 | [13] -0.018 | rosiglitazone -0.03 | [3] -0.004 | [11] -0.006

TNXB isoform 4 (UniProt P22105)
inactive: [12] 0.17 | [6] 0.292 | [7] -0.082

TRMT2B (UniProt Q96GJ1)
inactive: [9] 0 | [4] -0.109 | vemurafenib 0.015 | [5] -0.106 | [6] -0.096 | givinostat -0.032 | barasertib -0.199 | [7] 0.081 | volasertib 0.055 | [8] -0.038 | [1] -0.021 | [10] 0.051 | [13] -0.091 | rosiglitazone -0.168 | [3] 0.019 | [11] -0.009

TRIM29 (UniProt Q14134)
inactive: [6] -0.118 | [7] 0.498

TPD52L2 isoform 3 (UniProt O43399)
inactive: Nexturastat A -0.021 | vemurafenib -0.028 | [6] -0.283 | [8] 0.02 | epoxomicin 0.001 | [10] -0.076 | [13] -0.029 | [11] -0.042

TRAF3 (UniProt Q13114)
inactive: [9] -0.171 | vemurafenib -0.227 | [13] -0.049

TRIM21 (UniProt P19474)
inactive: [4] 0.047 | [5] 0.014 | [6] -0.275 | givinostat -0.016 | barasertib 0.061 | volasertib 0.06 | [8] 0.14 | [1] 0.04 | rosiglitazone 0.058 | [3] -0.022

TRIP12 isoform 3 (UniProt Q14669)
inactive: [9] -0.045 | [12] 0.092 | Nexturastat A -0.09 | vemurafenib -0.064 | [6] -0.165 | barasertib -0.038 | [7] 0.219 | [8] 0.034 | epoxomicin 0.019 | [10] 0.064 | [13] -0.136 | rosiglitazone 0.096 | [3] -0.027 | [11] -0.013

TRIM65 (UniProt Q6PJ69)
inactive: [9] 0.07 | [12] 0.029 | vemurafenib -0.164 | [7] 0.098 | [13] -0.284 | [3] 0.043

TNK2 isoform 3 (UniProt Q07912)
inactive: givinostat -0.017 | barasertib 0.122 | [1] 0.089 | rosiglitazone -0.125 | [3] -0.037

TOM1 (UniProt O60784)
inactive: [2] 0.058 | [12] -0.022 | [6] -0.015 | givinostat -0.09 | barasertib -0.039 | epoxomicin 0.094 | [10] -0.072
active: Nexturastat A 0.504 | [11] -0.664

TRAPPC2 isoform 3 (UniProt P0DI81)
inactive: [9] -0.027 | [4] -0.116 | vemurafenib 0.008 | [5] -0.031 | [6] 0.047 | givinostat 0.018 | barasertib 0.085 | volasertib -0.002 | [8] 0.111 | [1] 0.055 | [10] -0.023 | [13] -0.063 | rosiglitazone -0.018 | [3] -0.085 | [11] 0.101

Two consecutive entries from above, for reference:
TOM1 (UniProt O60784)
inactive: [2] 0.058 | [12] -0.022 | [6] -0.015 | givinostat -0.09 | barasertib -0.039 | epoxomicin 0.094 | [10] -0.072
active: Nexturastat A 0.504 | [11] -0.664

TRAPPC2 isoform 3 (UniProt P0DI81)
inactive: [9] -0.027 | [4] -0.116 | vemurafenib 0.008 | [5] -0.031 | [6] 0.047 | givinostat 0.018 | barasertib 0.085 | volasertib -0.002 | [8] 0.111 | [1] 0.055 | [10] -0.023 | [13] -0.063 | rosiglitazone -0.018 | [3] -0.085 | [11] 0.101
